Results: US20250019448A1 (BIOCOMPLETE, published 2025)
These are yes or no findings as the source states them, for the method shown. Some entries that bind do so weakly or less than the wild type.

The chains behind the UniProt entries cited, without tags or fusion partners. Where a name states a change or a piece, a line headed by the entry shows the natural chain unless it says otherwise.
UniProt Q99835: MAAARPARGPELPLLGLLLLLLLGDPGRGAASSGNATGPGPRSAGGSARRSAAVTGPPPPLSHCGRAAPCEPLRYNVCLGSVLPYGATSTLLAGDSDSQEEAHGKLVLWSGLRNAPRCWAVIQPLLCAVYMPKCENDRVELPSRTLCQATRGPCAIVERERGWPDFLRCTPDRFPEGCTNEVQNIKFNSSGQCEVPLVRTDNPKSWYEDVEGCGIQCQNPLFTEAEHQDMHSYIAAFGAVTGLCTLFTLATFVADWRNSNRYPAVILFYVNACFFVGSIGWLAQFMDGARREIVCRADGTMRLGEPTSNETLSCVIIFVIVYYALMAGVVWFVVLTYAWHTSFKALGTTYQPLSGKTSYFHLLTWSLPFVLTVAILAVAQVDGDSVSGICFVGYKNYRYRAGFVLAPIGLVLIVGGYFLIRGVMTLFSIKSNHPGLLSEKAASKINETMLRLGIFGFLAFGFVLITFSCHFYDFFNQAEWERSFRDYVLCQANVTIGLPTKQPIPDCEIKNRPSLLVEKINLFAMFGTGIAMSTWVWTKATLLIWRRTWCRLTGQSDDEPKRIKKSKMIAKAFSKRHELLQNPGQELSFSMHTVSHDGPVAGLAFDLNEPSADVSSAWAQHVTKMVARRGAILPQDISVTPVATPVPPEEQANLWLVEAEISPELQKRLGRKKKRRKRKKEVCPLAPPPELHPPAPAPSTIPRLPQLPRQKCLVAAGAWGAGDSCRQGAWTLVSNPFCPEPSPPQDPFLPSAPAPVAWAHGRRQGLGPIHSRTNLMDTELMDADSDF

Target: SMO (smoothened) protein (Homo sapiens (Human)) (UniProt Q99835)
Assay: flow cytometry on HCT116 cells, 10 µg antibody, Alexa 594 secondary antibody

binding: binds
B1: #47-7 antibody (IgG form) (antibody, V domains shown)
VH: QVQLVQSGGGVVQPGSSLRLSCEASGFAIGDNALNWVRQAPGKGLEWVGYIRSNSYGGTAEYAASVKGRFTISKDESKNIAYLEMNSLRAEDTAVYYCARRAHHYGGSTYNPSWYFDLWGRGTLVTVSS
VL: EIVLTQSPSFLSASVGDRVTITCRASQDISRRLAWYQQKPGKAPKLLIYGASNLASGVPSRFTGSGSGTEFTLTISSLQPDDFATYYCQQGYSSPRTFGQGTKVDIK
